The list shows only some results of the screen, not a fair sample: it is rich in T/C values a quarter to a half above the control, in often repeated tests (any T/C) and in doses without a T/C. Other doses and runs of a compound stand elsewhere. T/C gives the treated animals as a percentage of the vehicle group. Some doses have a count of surviving animals in place of a T/C: the source files T/C as zero there, which appears to mark a toxic dose or a test without result, not a measured value. Some doses without a T/C left all or most animals alive at the check, yet need not have been tolerated: survival well below the control is almost never listed, so the zero probably covers shortened survival too. Survivors were counted at the toxicity check, usually on the fifth day, unless a day is given; later deaths do not show. Schedule codes are those of the source, taken here to give the interval after Q, in days (D) or hours (H), and the number of doses after X. Some entries hold several experiments; the values are given in rising order. Brackets with × give the number of equal values in this list. Some molecules as drawn cover several salts, stereoisomers or complexes of the source; a dose is that of the sample tested. Where survival is the endpoint, this PubChem deposit counts one and a half times the control or more as active, and values a quarter to a half above the control carry no call in these data; other NCI protocols may use other cut-offs. Some T/C values carry the count of animals alive at the toxicity check (mostly the fifth day); without a count, all were alive then.
Tested on: P388 leukemia ip, CD2F1 mice, survival T/C
Experiment: NCI In Vivo Anticancer Drug Screen. Data for tumor model P388 Leukemia (intraperitoneal) in CD2F1 (CDF1) mice
Settings: T/C endpoint: median survival time, higher T/C = longer survival
[1] = dose: 50.0 mg/kg/injection, schedule: Q01DX009 (ip), vehicle: Klucel (hydroxypropylcellulose) (HPC)
[2] = dose: 50.0 mg/kg/injection, schedule: Q01DX005 (ip), vehicle: Klucel (hydroxypropylcellulose) (HPC)
[3] = dose: 100.0 mg/kg/injection, schedule: Q01DX005 (ip), vehicle: Klucel (hydroxypropylcellulose) (HPC)
[4] = dose: 200.0 mg/kg/injection, schedule: Q01DX005 (ip), vehicle: Klucel (hydroxypropylcellulose) (HPC)
[5] = dose: 200.0 mg/kg/injection, schedule: Q01DX009 (ip), vehicle: saline with Tween-80
[6] = dose: 100.0 mg/kg/injection, schedule: Q01DX009 (ip), vehicle: saline with Tween-80
[7] = dose: 25.0 mg/kg/injection, schedule: Q01DX005 (ip), vehicle: Klucel (hydroxypropylcellulose) (HPC)
[8] = dose: 100.0 mg/kg/injection, schedule: Q01DX009 (ip), vehicle: saline
[9] = dose: 200.0 mg/kg/injection, schedule: Q01DX009 (ip), vehicle: saline
[10] = dose: 400.0 mg/kg/injection, schedule: Q01DX009 (ip), vehicle: saline
[11] = dose: 50.0 mg/kg/injection, schedule: Q01DX009 (ip), vehicle: saline

`Nc1nc(F)nc2c1ncn2C1OC(COP(=O)(O)O)C(O)C1O` (stereo not drawn) was tested, and the T/C [1] was 136 % of control, the T/C (dose: 60.0 mg/kg/injection, schedule: Q01DX009 (ip), vehicle: saline, evaluated on day 30) was 148 % of control and the T/C (dose: 60.0 mg/kg/injection, schedule: Q01DX009 (ip), vehicle: saline, evaluated on day 45) was 147, 149 (2×), 155 % of control. The T/C (dose: 60.0 mg/kg/injection, schedule: Q01DX009 (ip), vehicle: saline, evaluated on day 60) was 143, 146, 151, 156, 163 % of control, the T/C (dose: 90.0 mg/kg/injection, schedule: Q01DX009 (ip), vehicle: saline, evaluated on day 30) was 164 % of control and the T/C (dose: 90.0 mg/kg/injection, schedule: Q01DX009 (ip), vehicle: saline, evaluated on day 45) was 173, 175 (2×), 177 (2×), 178, 186 % of control. The T/C (dose: 90.0 mg/kg/injection, schedule: Q01DX009 (ip), vehicle: saline, evaluated on day 60) was 161, 166, 171, 175, 177 (2×), 182 % of control, the T/C (dose: 134.0 mg/kg/injection, schedule: Q01DX009 (ip), vehicle: saline, evaluated on day 30) was 199 % of control and the T/C (dose: 134.0 mg/kg/injection, schedule: Q01DX009 (ip), vehicle: saline, evaluated on day 45) was 194, 202, 203, 207, 214, 215, 226 % of control. The T/C (dose: 134.0 mg/kg/injection, schedule: Q01DX009 (ip), vehicle: saline, evaluated on day 60) was 191 (2×), 198, 202, 203 (2×), 213 % of control, the T/C (dose: 200.0 mg/kg/injection, schedule: Q01DX009 (ip), vehicle: saline, evaluated on day 30) was 233 % of control and the T/C (dose: 200.0 mg/kg/injection, schedule: Q01DX009 (ip), vehicle: saline, evaluated on day 45) was 138, 224, 225, 235 (2×), 241, 247 % of control. The T/C (dose: 200.0 mg/kg/injection, schedule: Q01DX009 (ip), vehicle: saline, evaluated on day 60) was 110, 218, 224 (2×), 229, 230, 248 % of control, the T/C (dose: 250.0 mg/kg/injection, schedule: Q01DX009 (ip), vehicle: saline, evaluated on day 45) was 89 and 116 % of control and the T/C (dose: 250.0 mg/kg/injection, schedule: Q01DX009 (ip), vehicle: saline, evaluated on day 60) was 105 and 106 % of control. For the same molecule, the survivor count (dose: 400.0 mg/kg/injection, schedule: Q01DX009 (ip), vehicle: Klucel (hydroxypropylcellulose) (HPC)) was 3 of 6 and 6 of 6, the T/C (dose: 400.0 mg/kg/injection, schedule: Q04DX002 (ip), vehicle: saline) was 127 % of control and the T/C (dose: 800.0 mg/kg/injection, schedule: Q01DX001 (ip), vehicle: saline, evaluated on day 5) was 138 % of control. The T/C (dose: 800.0 mg/kg/injection, schedule: Q01DX001 (ip), vehicle: saline, evaluated on day 45) was 137 % of control [9 of 10 alive], the T/C (dose: 800.0 mg/kg/injection, schedule: Q04DX002 (ip), vehicle: saline) was 137 and 147 % of control and the T/C (dose: 1200.0 mg/kg/injection, schedule: Q01DX001 (ip), vehicle: saline, evaluated on day 5) was 143 % of control. For the same molecule, the T/C (dose: 1200.0 mg/kg/injection, schedule: Q01DX001 (ip), vehicle: saline, evaluated on day 45) was 145 % of control [9 of 10 alive], the T/C (dose: 1500.0 mg/kg/injection, schedule: Q01DX001 (ip), vehicle: saline) was 142 % of control [7 of 10 alive] and the survivor count (dose: 1800.0 mg/kg/injection, schedule: Q01DX001 (ip), vehicle: saline) was 2 of 4 and 5 of 10.
`C/C=C(\C)C(=O)N/N=C\C=C\c1ccccc1` was tested, and the survivor count [2] was 5 of 5, the survivor count [3] was 2 of 5 and the survivor count [4] was 1 of 4.
`CCSC(=S)Nc1nc2ccc(C)cc2s1` was tested, and the survivor count [1] was 6 of 6, the survivor count (dose: 100.0 mg/kg/injection, schedule: Q01DX009 (ip), vehicle: Klucel (hydroxypropylcellulose) (HPC)) was 6 of 6 and the survivor count (dose: 200.0 mg/kg/injection, schedule: Q01DX009 (ip), vehicle: Klucel (hydroxypropylcellulose) (HPC)) was 3 of 6.
For `O=C1C(=O)c2ccccc2C(O)=C1CC=C(Br)Br`, the survivor count [5] was 3 of 6 and the survivor count (dose: 400.0 mg/kg/injection, schedule: Q04DX003 (ip), vehicle: saline with Tween-80) was 3 of 6.
`N#CN=CN1CC2CCC(CC2)C1` was tested, and the survivor count (dose: 50.0 mg/kg/injection, schedule: Q01DX009 (ip), vehicle: saline with Tween-80) was 0 of 6, the survivor count [6] was 0 of 6 and the survivor count [5] was 0 of 6.
For `Nc1nc2c(ccc3ccccc32)s1`, the survivor count (dose: 400.0 mg/kg/injection, schedule: Q01DX009 (ip), vehicle: saline with Tween-80) was 0 of 6 (2×) and 3 of 6.
`COC(C)(C)O/N=C(\C[n+]1ccccc1)c1ccccc1` was tested, and the survivor count (dose: 50.0 mg/kg/injection, schedule: Q01DX009 (ip), vehicle: water) was 3 of 6.
In the case of `O=C(NCCF)Oc1cc(Cl)c(Cl)cc1Cl`, the T/C [7] is reported as 128 % of control (2×), the T/C [2] is reported as 127 % of control and the survivor count [2] is reported as 0 of 6 and 5 of 6. For the same molecule, the survivor count [3] was 0 of 6 and the survivor count [4] was 0 of 6.
In the case of `CC=C(/C(=C/C)c1ccc(O)cc1)c1ccc(O)cc1`, the T/C [6] is reported as 129 % of control and the T/C (dose: 150.0 mg/kg/injection, schedule: Q01DX009 (ip), vehicle: saline with Tween-80) is reported as 141 % of control.
With `CCn1c2ccccc2c2cc(N=Nc3[nH]c4ccccc4c3CN(C)C)ccc21` the T/C [6] was 125 % of control.
In the case of `COC(=O)c1cc(OC(C)=O)c2cc3c(cc2c1-c1cc(OC)c(OC)c(OC)c1)OCO3`, the survivor count (dose: 400.0 mg/kg/injection, schedule: Q04DX003 (ip), vehicle: Klucel (hydroxypropylcellulose) (HPC)) is reported as 3 of 6.
For `COC(=O)C1CC(O)CC(C(=O)OC)O1` (stereo not drawn), the survivor count (dose: 240.0 mg/kg/injection, schedule: Q01DX005 (ip), vehicle: saline) was 0 of 6.
For `CCCCC[CH2][Ge]([CH2]CCCCC)([CH2]CCCCC)[O]C(C)=O`, the T/C (dose: 400.0 mg/kg/injection, schedule: Q01DX001 (ip), vehicle: Klucel (hydroxypropylcellulose) (HPC)) was 133 % of control.
In the case of `CC(C)(C)Oc1ccc(CC(NC(=O)OCC2c3ccccc3-c3ccccc32)C(=O)O)cc1` (stereo not drawn), the T/C [3] is reported as 129 % of control.
With `CC(C)(CCl)C(=O)O` the survivor count [8] was 2 of 6 and the survivor count [9] was 3 of 6.
With `S=C=NP1(N=C=S)=NP(N=C=S)(N=C=S)=NP(N=C=S)(N=C=S)=N1` (stereo not drawn) the survivor count [4] was 5 of 5.
For `Cc1cc(Cl)ccc1S(=O)(=O)Cl`, the survivor count [5] was 3 of 6.
For `Cn1c2ccccc2c2[nH]c3ccccc3c(=O)c21`, the survivor count [3] was 5 of 6.
`C(=C\c1cc2ccc(C3=NCCN3)cc2[nH]1)/c1ccc2cc(C3=NCCN3)[nH]c2c1` was tested, and the survivor count [3] was 1 of 5 and the survivor count [4] was 0 of 5.
In the case of `O=C(O)CCC(=O)O`, the survivor count (dose: 10.0 mg/kg/injection, schedule: Q01DX009 (ip), vehicle: water) is reported as 6 of 6.
With `C=C1C(=O)O[C@@H]2C[C@H](C)[C@@H]3CC[C@H](O)[C@@]3(CO)C[C@H]12` the survivor count [7] was 0 of 6, the T/C [3] was 128 % of control and the survivor count [4] was 3 of 6.
For `COc1ccc(CCN)cc1OC`, the survivor count [10] was 0 of 6 and the survivor count (dose: 600.0 mg/kg/injection, schedule: Q01DX009 (ip), vehicle: saline) was 0 of 6.
`CCOC(=O)C1C(C)=CC2=Nc3ccccc3NC(=O)C2C1c1ccccc1` (stereo not drawn) was tested, and the survivor count [3] was 0 of 6.
With `c1ccc(-c2c[s+]c(-c3ccccc3)s2)cc1` the survivor count (dose: 200.0 mg/kg/injection, schedule: Q01DX009 (ip), vehicle: distilled water + Tween-80) was 3 of 6.
In the case of `COc1cc(-c2ccc(N=Nc3ccc4c(S(=O)(=O)O)cc(S(=O)(=O)O)c(N)c4c3O)c(OC)c2)ccc1N=Nc1ccc2c(S(=O)(=O)O)cc(S(=O)(=O)O)c(N)c2c1O`, the survivor count [11] is reported as 6 of 6, the survivor count [8] is reported as 5 of 6 and the survivor count [9] is reported as 0 of 6. For the same molecule, the survivor count [10] was 0 of 6.
In the case of `NC(=O)C1=Cc2cccn2-c2ccccc2S1`, the survivor count (dose: 240.0 mg/kg/injection, schedule: Q01DX005 (ip), vehicle: Klucel (hydroxypropylcellulose) (HPC)) is reported as 0 of 6.
`O=Cc1cc(/C(N=Nc2ccccc2C(=O)O)=N/Nc2ccccc2C(=O)O)nc2[nH]c(=O)ccc12` was tested, and the survivor count [4] was 6 of 6.
`CCCCCCCCCCCC[n+]1ccc(-c2cc[n+](CCCCCCCCCCCC)cc2)cc1` was tested, and the survivor count [11] was 0 of 6, the survivor count [8] was 0 of 6 and the survivor count [9] was 0 of 6.

From PubChem BioAssay AID330 (DTP/NCI, 2004)
